# About 5,400 (1.8%) of roughly 300,000 compounds were called active. The shares of active, inactive and inconclusive entries below differ from those in the screen. Calls follow the shape of the full dose curve; tested in HEK293 cells. Potencies beside an inconclusive call are fits to weak or partial responses and may not hold up.
# Experiment: qHTS for inhibitors of binding or entry into cells for Marburg Virus
# Conditions: Marburg virus pseudotyped entry inhibition, cell reporter; series mostly up to 37.8 µM
# Potency is read from the fitted curve at half-maximal effect.
row,Structure (SMILES),Potency
1,CCNc1nc(SC(C)C(=O)Nc2ccccc2)nc(N(C)C)n1 (stereo not drawn),"inconclusive: 5.62 µM [inhibitor, partial curve, poor fit]"
2,COc1ccc(OC2C(=O)N(c3ccc(C)c(C)c3)C2c2ccc(OC)c(OC)c2)cc1 (stereo not drawn),"inconclusive: 7.94 µM [inhibitor, partial curve, poor fit]"
3,CCCCCCCOC(=O)c1nc(Cl)c(Cl)c(N)c1Cl,"inconclusive: 35.5 µM [inhibitor, single point]"
4,O=C(Nc1ccc2c(c1)nc1n2CCCCC1)c1cc(S(=O)(=O)N2CCOCC2)ccc1Cl,"inconclusive: 22.4 µM [inhibitor, single point]"
5,COc1cc([N+](=O)[O-])cc(/C=N/NC(=O)CSc2nnc(-c3ccccc3)n2C)c1O,inactive
6,Cc1ccc(N2CCN(C3=NC(=O)/C(=C\c4cccs4)S3)CC2)cc1,"inconclusive: 17.8 µM [inhibitor, single point]"
7,O=C(Cn1cnc2ccccc2c1=O)N/N=C/c1ccc(Br)cc1,inactive
8,COc1ccccc1NC(=O)C(C)OC(=O)C1CCC(C(C)(C)C)CC1 (stereo not drawn),"inconclusive: 10 µM [inhibitor, partial curve, poor fit]"
9,CCOC(=O)c1ccc(NC(=O)CCc2nc(-c3ccccc3Cl)no2)cc1,"inconclusive: 18.3 µM [inhibitor, partial curve]"
10,COc1ccc(Cl)cc1NC(=O)CSc1nc(=O)n(CCN(C)C)c2c1CCCC2,"inconclusive: 17.8 µM [inhibitor, single point]"
11,COc1cc(CO)ccc1OCc1nnnn1-c1ccc(C)cc1,inactive
12,Cc1cc(Br)c(NC(=O)COC(=O)C2CC2C)c(Br)c1 (stereo not drawn),"inconclusive: 1.41 µM [activator, partial curve, poor fit]"
13,O=C(NCCN1CCCC1)c1ccc(Cn2c(=S)[nH]c3ccc(Br)cc3c2=O)cc1,"inconclusive: 35.5 µM [inhibitor, single point]"
14,CCc1noc(C)c1C(=O)N1CCCC(C(=O)c2cc(F)ccc2F)C1 (stereo not drawn),"inconclusive: 12.6 µM [inhibitor, single point]"
15,Cc1cc(C)n(CC(O)CN2c3ccccc3Sc3ccccc32)n1 (stereo not drawn),inactive
16,Cc1cccc(Nc2nc(N)c(C#N)c(CC#N)c2C#N)c1,"inconclusive: 0.355 µM [inhibitor, partial curve, poor fit]"
17,Cc1cc(C)c(S(=O)(=O)N(C)Cc2cnn(C)c2)c(C)c1,inactive
18,COc1ccccc1CNCC(=O)Nc1cc(S(=O)(=O)N2CCOCC2)ccc1Cl,"inconclusive: 6.31 µM [inhibitor, full curve, poor fit]"
19,O=C(O)/C=C/C(=O)N1N=C(c2ccco2)CC1c1ccco1 (stereo not drawn),"inconclusive: 1.26 µM [activator, single point]"
20,COc1cccc(N/C(SCc2ccccc2Cl)=C(/C#N)C(=O)NCc2cccs2)c1,"inconclusive: 0.562 µM [inhibitor, partial curve, poor fit]"
21,CC1CCCC(C)N1C(=O)c1cc(-c2ccco2)on1 (stereo not drawn),inactive
22,CCOc1cc(NC(=O)c2ccco2)c(OCC)cc1NC(=O)COc1ccccc1C,"inconclusive: 0.231 µM [inhibitor, full curve, poor fit]"

# Part of the list above, bar-delimited.
row | Structure (SMILES) | Potency
2 | COc1ccc(OC2C(=O)N(c3ccc(C)c(C)c3)C2c2ccc(OC)c(OC)c2)cc1 (stereo not drawn) | inconclusive: 7.94 µM [inhibitor, partial curve, poor fit]
9 | CCOC(=O)c1ccc(NC(=O)CCc2nc(-c3ccccc3Cl)no2)cc1 | inconclusive: 18.3 µM [inhibitor, partial curve]
19 | O=C(O)/C=C/C(=O)N1N=C(c2ccco2)CC1c1ccco1 (stereo not drawn) | inconclusive: 1.26 µM [activator, single point]

# The listing continues:

row,Structure (SMILES),Potency
1,Cc1ccccc1N/C(SCc1ccc(Cl)cc1)=C(/C#N)C(=O)NCc1ccco1,"inconclusive: 14.6 µM [inhibitor, partial curve, poor fit]"
2,O=C(N/N=C/c1cccnc1)c1cccc(NC(=O)c2cccc(Br)c2)c1,inactive
3,COc1ccccc1Nc1nn2c(=O)c3ccc(C(=O)N4CCCCC4)cc3nc2s1,"inconclusive: 3.55 µM [activator, full curve]"
4,COc1ccc(CCn2nnnc2C2(c3ccc(C)cc3)CC2)cc1,inactive
5,O=C(/C=C/c1ccc(Cl)c([N+](=O)[O-])c1)Nc1ccc(N2CCCC2)c(Cl)c1,"inconclusive: 35.5 µM [inhibitor, single point]"
6,CCOP(=O)(OCC)C1(O)C(=O)Nc2ccccc21 (stereo not drawn),"inconclusive: 0.282 µM [inhibitor, partial curve, poor fit]"
7,CC(C)C(NC(=O)c1ccco1)C(=O)OCC(=O)Nc1ccc(C(N)=O)cc1 (stereo not drawn),"inconclusive: 6.31 µM [activator, single point]"
8,Cc1cccc(C)c1NC(=O)CSc1nc(C)c(CC(=O)c2ccc(Br)cc2)c(C)c1C#N,"inconclusive: 35.5 µM [inhibitor, single point]"
9,CC12CCC(c3nnc(SCc4ccc(Cl)cc4)nc31)C2(C)C (stereo not drawn),inactive
10,COc1ccc(NC(=S)N(CCC(C)C)C2CCN(C(C)C)CC2)cc1Cl,"inconclusive: 12.6 µM [inhibitor, partial curve, poor fit]"
11,CCN1C(=O)/C(=C/c2ccc(C)s2)SC1=Nc1ccc(OC)cc1,"inconclusive: 35.5 µM [inhibitor, single point]"
12,Cc1ccc(N(CC(=O)NCc2ccco2)C(=O)CCC(=O)Nc2nccs2)c(C)c1,inactive
13,COc1ccc(NC(=O)CSc2nnc(CNc3ccc(C)cc3)n2C)cc1,inactive
14,Cc1cccc(NC(=O)c2cc(-c3ccc(C)s3)nc3ccccc23)n1,"inconclusive: 14.1 µM [inhibitor, partial curve]"
15,CC(C)(C)c1ccc(OCC(=O)O/N=C(\N)c2ccncc2)cc1,inactive
16,COc1cc(Cl)c(C)cc1NC(=O)c1ccc2c(SCC(=O)O)c3c(nc2c1)CCCC3,inactive
17,Cc1cc(C)nc(-n2nc(C)cc2NC(=O)c2ccc(F)cc2F)n1,"inconclusive: 35.5 µM [inhibitor, single point]"
18,CC(=O)Nc1ccc(S(=O)(=O)Oc2ccc(C(=S)N3CCC(O)CC3)cc2)cc1,"inconclusive: 16.4 µM [inhibitor, single point]"
19,Cc1cccc(C)c1N(CC(=O)N/N=C/c1cc(Br)c(C)o1)S(C)(=O)=O,inactive
20,COc1cccc(-c2noc(-c3cccnc3)n2)c1,"inconclusive: 35.5 µM [inhibitor, single point]"
21,COc1cc(/C=C2\SC(=S)N(N3CCOCC3)C2=O)cc(OC)c1OC,inactive
